# According to paper PMC12499559:
# Sequences of proteins named here, by UniProt entry; tags and fusion partners are left off.
# UniProt O14867: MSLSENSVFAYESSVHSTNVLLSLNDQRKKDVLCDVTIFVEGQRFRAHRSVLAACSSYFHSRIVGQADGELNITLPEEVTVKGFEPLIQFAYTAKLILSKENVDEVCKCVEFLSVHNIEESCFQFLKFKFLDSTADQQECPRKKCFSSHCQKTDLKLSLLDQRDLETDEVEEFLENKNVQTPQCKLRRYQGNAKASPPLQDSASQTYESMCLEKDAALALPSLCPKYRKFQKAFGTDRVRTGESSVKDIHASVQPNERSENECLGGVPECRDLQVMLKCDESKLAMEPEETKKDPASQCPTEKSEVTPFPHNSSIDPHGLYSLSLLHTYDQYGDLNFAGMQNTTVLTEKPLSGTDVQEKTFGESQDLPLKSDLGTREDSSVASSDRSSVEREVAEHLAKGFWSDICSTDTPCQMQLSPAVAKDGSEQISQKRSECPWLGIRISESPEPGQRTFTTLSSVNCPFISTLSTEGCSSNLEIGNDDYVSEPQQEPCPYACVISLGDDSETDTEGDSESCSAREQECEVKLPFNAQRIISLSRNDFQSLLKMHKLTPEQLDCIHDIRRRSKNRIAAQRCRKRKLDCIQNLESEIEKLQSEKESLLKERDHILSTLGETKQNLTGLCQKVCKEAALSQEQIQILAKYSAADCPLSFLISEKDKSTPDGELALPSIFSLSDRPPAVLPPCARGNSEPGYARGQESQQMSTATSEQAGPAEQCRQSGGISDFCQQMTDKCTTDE
# UniProt O96019: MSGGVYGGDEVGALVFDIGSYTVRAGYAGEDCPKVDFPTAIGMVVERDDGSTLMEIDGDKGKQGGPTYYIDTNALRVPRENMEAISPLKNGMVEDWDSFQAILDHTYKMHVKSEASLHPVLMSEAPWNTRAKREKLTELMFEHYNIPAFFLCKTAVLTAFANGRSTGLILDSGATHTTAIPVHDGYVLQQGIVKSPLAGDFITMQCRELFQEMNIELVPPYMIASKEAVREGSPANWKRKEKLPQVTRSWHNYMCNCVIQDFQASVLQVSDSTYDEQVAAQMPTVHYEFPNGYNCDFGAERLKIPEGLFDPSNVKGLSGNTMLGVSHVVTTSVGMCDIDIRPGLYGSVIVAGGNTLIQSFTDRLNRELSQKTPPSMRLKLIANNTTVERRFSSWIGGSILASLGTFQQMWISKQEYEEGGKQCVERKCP
# Results are given in words; binding and its absence hold for the method and conditions named. Binding seen in cells or lysates may run through a third protein. Some entries that bind do so weakly or less than the wild type.
# Target: BTB and CNC homology 1 (BACH1) (human (endogenous in KYSE150 and KYSE450)) (UniProt O14867)
# Assay: co-IP; nuclear lysates (500 ug) of KYSE150 and KYSE450 cells incubated overnight at 4 C with 2 ug anti-BAF53A or anti-BACH1 antibody, protein A/G magnetic beads, western blot
substance,measurement,value
BRG1-associated factor 53A (BAF53A) (from UniProt O96019 1-429),binding,binds
